Data as given in PubChem BioAssay AID1224826 (NIAID, 2016)

Aim: 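Knock-downs that raise or lower Tnf reporter signal after endotoxin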 (primary screen)
Cell system: RAW264.7 G9 macrophages from mouse bearing reporters for p65 (GFP) and the Tnf promoter (mCherry)
Knock-down reagent: siRNA pool against mouse genes, 100 nM
Timing: 16 h of LPS stimulation, after 2 days of siRNA transfection
Challenge: bacterial lipopolysaccharide (Salmonella minnesota R595), 10 ng/ml
Measurement: 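Nuclear mCherry signal of the Tnf promoter reporter measured by imaging after background removal, scaled to each plate median and turned into robust z-scores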
Direction: Tnf reporter robust z-score: higher = stronger Tnf promoter reporter signal after LPS
Active means: 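a well counts as active at a score of -1.3 or below (Tlr4 knock-down control median) or above 3 (raised signal); controls and wells holding fewer than 50 cells are excluded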
Calls: active = Tnf reporter clearly lowered or raised; inactive = no clear change in Tnf reporter
This is an unselected part of about 17,000 reagents. Of all reagents, about 1,110 (6.6%) are marked active. 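Active means lowered or raised reporter signal; replicate intensities are raw and not normalised per plate.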 Some reagents were tested in more than one well and are listed for each. Not all columns of the deposit are shown. Reagent sequences are not shown.

Mrgpra4 → Tnf reporter robust z-score: 3.03; fewer than 50 cells in well: enough cells in well; call: active
Gmps → Tnf reporter robust z-score: -0.38; fewer than 50 cells in well: enough cells in well; call: inactive
Fbxl5 → Tnf reporter robust z-score: -0.5; fewer than 50 cells in well: enough cells in well; call: inactive
Paral1 → Tnf reporter robust z-score: -1.14; fewer than 50 cells in well: enough cells in well; call: inactive
9230112E08Rik → Tnf reporter robust z-score: 1.53; fewer than 50 cells in well: enough cells in well; call: inactive
9230112E08Rik → Tnf reporter robust z-score: 0.33; fewer than 50 cells in well: enough cells in well; call: inactive
Sptlc3 → Tnf reporter robust z-score: 1.16; fewer than 50 cells in well: enough cells in well; call: inactive
Clec4a3 → fewer than 50 cells in well: fewer than 50 cells per well; well left out of calls; call: inactive
Htr5b → Tnf reporter robust z-score: 0.44; fewer than 50 cells in well: enough cells in well; call: inactive
Rorc → Tnf reporter robust z-score: -1.24; fewer than 50 cells in well: enough cells in well; call: inactive
Cpne1 → Tnf reporter robust z-score: -0.05; fewer than 50 cells in well: enough cells in well; call: inactive
Or6d12 → fewer than 50 cells in well: fewer than 50 cells per well; well left out of calls; call: inactive
Pdcl3 → Tnf reporter robust z-score: -1.29; fewer than 50 cells in well: enough cells in well; call: inactive
Or1j21 → fewer than 50 cells in well: fewer than 50 cells per well; well left out of calls; call: inactive
Nhlh1 → Tnf reporter robust z-score: -1.29; fewer than 50 cells in well: enough cells in well; call: inactive
Bak1 → Tnf reporter robust z-score: -0.35; fewer than 50 cells in well: enough cells in well; call: inactive
Ankzf1 → Tnf reporter robust z-score: 1.09; fewer than 50 cells in well: enough cells in well; call: inactive
Myh9 → Tnf reporter robust z-score: 0.06; fewer than 50 cells in well: enough cells in well; call: inactive
P2ry2 → Tnf reporter robust z-score: -1.64; fewer than 50 cells in well: enough cells in well; call: active
Rpl11 → Tnf reporter robust z-score: -2.02; fewer than 50 cells in well: enough cells in well; call: active
Asb18 → Tnf reporter robust z-score: 2.91; fewer than 50 cells in well: enough cells in well; call: inactive
